Laboratory results as given in the supplement of paper PMC7877785.
± gives the uncertainty stated by the source. Many entries were measured with a wide error.

Assay: self-splicing fitness, log relative to wild type (ln ratio); higher = more splicing; Tetrahymena group I intron in knt gene, E. coli kanamycin selection, DiMSum; sequences stand for … in CUCUCU…GGAGGGAAAAGUUAUCAGGCAUGCACCUGGUAGCUAGUCUUUAAACCAAUAGAUUGCAUCGGUUUAAAAGGCAAGACCGUCAAAUUGCGGGAAAGGGGUCAACAGCCGUUCAGUACCAAGUCUCAGGGGAAACUUUGAGAUGGCCUUGCAAAGGGUAUGGUAAUAAGCUGACGGACAUGGUCCUAACCACGCAGCCAAGUCCUAAGUCAACAGAUCUUCUGUUGAUAUGGAUGCAGUUCACAGACUAAAUGUCGGUCGGGGAAGAUGUAUUCUUCUCAUAAGAUAUAGUCGGACCUCUCCUUAAUGGGAGCUAGCGGAUGAAGUGAUGCAACACUGGAGCCGCUGGGAACUAAUUUGUAUGCGAAAGUAUAUUGAUUAGUUUUGGAGUACUCGUGGUCG
Summary of the method: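 DiMSum derived fitness as the error-weighted combination of fold changes across replicates, kanamycin versus no kanamycin, normalised to wild type. E. coli BL21(DE3) held the library, which randomised all eight P1ex-region intron nucleotides within the knt kanamycin-resistance gene on pET-22b(+). Six replicate transformations grew overnight at 37°C or 30°C on LB agar with or without 25 μg/mL kanamycin, also containing 100 μg/mL carbenicillin, 50 μM IPTG and 0.2% rhamnose, and pooled colonies were amplicon-sequenced on an Illumina HiSeq 2500.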

Row | Sequence | self-splicing fitness (ln) (30 °C) | self-splicing fitness (ln) (37 °C)
1 | AGCCAGCAAUAUUACGGCAG | -1.01 ± 0.065 | -1.18 ± 0.092
2 | UUGAAGCAAUAUUACGUUGC |  | -3.2 ± 0.52
3 | AGCGAGCAAUAUUACGAAUC | -4.93 ± 1 | -2.34 ± 0.54
4 | CAUGAGCAAUAUUACGGGCC | -4.33 ± 1 | 
5 | CAGUAGCAAUAUUACGCACA | -1.88 ± 0.14 | -0.579 ± 0.18
6 | CAAUAGCAAUAUUACGUUAC | -4.15 ± 0.51 | 
7 | GGAUAGCAAUAUUACGGGAG | -5.02 ± 0.59 | 
8 | GAUGAGCAAUAUUACGGGAC | -5.03 ± 0.59 | 
9 | CAAGAGCAAUAUUACGCCUC |  | -3.08 ± 1
10 | CCUUAGCAAUAUUACGUAUA | -4.45 ± 0.51 | 
11 | CGCAAGCAAUAUUACGUUCA | -1.33 ± 0.1 | -0.636 ± 0.098
12 | UUCGAGCAAUAUUACGCAGA | -4.08 ± 1 | -2.77 ± 0.54
13 | GACCAGCAAUAUUACGCCGC |  | -2.41 ± 0.62
14 | UAUAAGCAAUAUUACGAGCC |  | -0.595 ± 1.4
15 | CGUGAGCAAUAUUACGCCAA |  | -3.37 ± 1
16 | GGUUAGCAAUAUUACGAAAA | -2.05 ± 0.41 | 0.949 ± 0.28
17 | UGGGAGCAAUAUUACGAUCC |  | -1.98 ± 0.81
18 | AUCAAGCAAUAUUACGAUUU | -0.487 ± 0.056 | -0.186 ± 0.072
19 | UCGCAGCAAUAUUACGGCCC | -2.5 ± 0.57 | 
20 | CGAGAGCAAUAUUACGACUA |  | -2.44 ± 0.77
21 | CUUAAGCAAUAUUACGAAUG | -0.541 ± 0.092 | -0.0976 ± 0.12

Row | Sequence | self-splicing fitness (ln) (30 °C) | self-splicing fitness (ln) (37 °C)
22 | GAUUAGCAAUAUUACGCAAC | -3.22 ± 0.26 | -1.89 ± 0.19
23 | CCGAAGCAAUAUUACGGUGA | -5.03 ± 0.51 | 
24 | GGGAAGCAAUAUUACGUGCC | -3.42 ± 0.53 | 
25 | UUCUAGCAAUAUUACGAAGU | -2.71 ± 0.65 | 
26 | GGGAAGCAAUAUUACGGUCG | 0.00025 ± 0.1 | -0.403 ± 0.14
27 | CCUGAGCAAUAUUACGACAA | -3.49 ± 0.61 | -3.92 ± 0.72
28 | AAUCAGCAAUAUUACGUGUU | -0.901 ± 0.056 | 0.209 ± 0.064
29 | UAUGAGCAAUAUUACGGCCU |  | -2.84 ± 0.77
30 | AGCGAGCAAUAUUACGCUUU | -5.09 ± 1 | 
31 | GGGGAGCAAUAUUACGAGGA |  | -3 ± 1.1
32 | GGGGAGCAAUAUUACGACGG |  | -1.51 ± 0.53
33 | CCGGAGCAAUAUUACGGUAC | -2.73 ± 0.22 | -2.25 ± 0.4
34 | UAUAAGCAAUAUUACGAGGA |  | -3.12 ± 0.53
35 | UUUGAGCAAUAUUACGGCCG |  | -2.64 ± 1.1
36 | CGGGAGCAAUAUUACGCGUU |  | -1.4 ± 0.53
37 | GUUCAGCAAUAUUACGCGGC | -2.79 ± 0.76 | 
38 | GAAGAGCAAUAUUACGCCCG |  | -0.756 ± 0.61
39 | GGUUAGCAAUAUUACGUCAG |  | -2.86 ± 0.53
40 | AGAGAGCAAUAUUACGUAGG | -3.88 ± 0.76 | 
41 | UCAGAGCAAUAUUACGUACG | -1.96 ± 0.24 | -1.96 ± 0.28
42 | CAUUAGCAAUAUUACGCAGA | -1.32 ± 0.67 | 

Whole records, quoted from the list.
GUUCAGCAAUAUUACGCGGC as listed: self-splicing fitness (ln) (30 °C): -2.79 ± 0.76
AUCAAGCAAUAUUACGAUUU as listed: self-splicing fitness (ln) (30 °C): -0.487 ± 0.056; self-splicing fitness (ln) (37 °C): -0.186 ± 0.072

Additional records

Row | Sequence | self-splicing fitness (ln) (30 °C) | self-splicing fitness (ln) (37 °C)
43 | GAAUAGCAAUAUUACGCAUC |  | -1.85 ± 0.81
44 | CCACAGCAAUAUUACGUACC | -3.7 ± 0.78 | -0.735 ± 0.5
45 | GGGCAGCAAUAUUACGCUCU |  | -2.08 ± 0.64
46 | CUCUAGCAAUAUUACGGUUG | -1.83 ± 0.12 | -0.869 ± 0.14
47 | AGUGAGCAAUAUUACGUGCU |  | -1.23 ± 0.7
48 | UCAUAGCAAUAUUACGCGAC | -3.39 ± 0.54 | 
49 | UUGGAGCAAUAUUACGGAGU |  | -1.09 ± 0.65
50 | GAGGAGCAAUAUUACGGACC | -3.34 ± 1 | 
51 | CAAGAGCAAUAUUACGCAAC | -3.34 ± 0.6 | -1.69 ± 0.84
52 | AAUCAGCAAUAUUACGUUUA | -0.652 ± 0.045 | -0.106 ± 0.06
53 | AGAAAGCAAUAUUACGCUAC | -3.25 ± 0.39 | -3.8 ± 0.73
54 | AGUGAGCAAUAUUACGCUAG | -1.67 ± 0.91 | -1.77 ± 0.67
55 | GUGCAGCAAUAUUACGCCAG |  | -2.5 ± 0.62
56 | AUGCAGCAAUAUUACGGGAC | -2.82 ± 0.17 | -2.74 ± 0.19
57 | CUGAAGCAAUAUUACGCUAA | -5.08 ± 1 | 
58 | UUAGAGCAAUAUUACGGGCU |  | -2.35 ± 0.63
59 | GGCCAGCAAUAUUACGCGAG | -4.66 ± 0.51 | 
60 | ACAGAGCAAUAUUACGCCCA | -1.33 ± 0.52 | 
61 | CCCUAGCAAUAUUACGGAUA | -4.48 ± 0.73 | 
62 | AGUUAGCAAUAUUACGUAGG |  | -1.87 ± 0.58
